Test results: article PMC3793910
These are yes or no findings as the source states them, for the method shown. Binding seen in cells or lysates may run through a third protein. Some results given as binding are weak or reduced against the parent protein; the word gives no strength. Each block holds one molecule with its values, some of them ahead of it.

Amino acid sequences for entries named in this document (tags omitted).
UniProt Q08857: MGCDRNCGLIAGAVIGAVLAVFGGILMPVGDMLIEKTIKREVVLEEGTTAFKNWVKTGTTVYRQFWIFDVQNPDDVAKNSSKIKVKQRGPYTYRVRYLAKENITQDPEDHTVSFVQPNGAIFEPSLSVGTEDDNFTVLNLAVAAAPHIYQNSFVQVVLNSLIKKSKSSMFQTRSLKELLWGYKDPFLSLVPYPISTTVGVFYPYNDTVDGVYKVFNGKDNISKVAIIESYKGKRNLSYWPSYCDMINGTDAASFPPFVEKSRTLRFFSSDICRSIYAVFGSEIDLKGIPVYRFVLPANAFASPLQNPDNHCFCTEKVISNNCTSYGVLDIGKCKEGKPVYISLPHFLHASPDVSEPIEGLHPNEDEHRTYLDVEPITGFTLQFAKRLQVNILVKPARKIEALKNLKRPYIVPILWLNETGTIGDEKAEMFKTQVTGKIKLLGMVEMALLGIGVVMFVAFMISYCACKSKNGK
UniProt Q62035: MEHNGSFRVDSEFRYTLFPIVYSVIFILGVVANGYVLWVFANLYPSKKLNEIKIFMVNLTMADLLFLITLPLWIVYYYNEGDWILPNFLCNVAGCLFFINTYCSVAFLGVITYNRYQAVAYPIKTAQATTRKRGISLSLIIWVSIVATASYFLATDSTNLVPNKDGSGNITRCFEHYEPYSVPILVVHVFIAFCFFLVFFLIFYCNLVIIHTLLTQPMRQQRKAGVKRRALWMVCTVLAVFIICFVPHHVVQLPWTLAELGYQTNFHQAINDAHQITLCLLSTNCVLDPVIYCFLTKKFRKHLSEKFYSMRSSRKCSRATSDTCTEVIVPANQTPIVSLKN

Tests used:
[1] = biological target: CD36 (mouse (endogenous in BMDM)) (UniProt Q08857); test: co-IP; post-nuclear lysates of macrophages, resting or treated with oxLDL (30 ug/mL) or PAF (10^-7 mol/L) for 20 min; lysed on ice in HEPES buffer with 1 mmol/L CaCl2, 1 mmol/L MgCl2, 1% Triton X-100; precipitated overnight with rabbit anti-PAFR (protein A-Sepharose) or mouse IgA anti-CD36 (protein G-Sepharose); immunoblot for PAFR, CD36 or flotillin-1
[2] = biological target: receptor for platelet-activating factor (PAFR) (mouse (endogenous in BMDM)) (UniProt Q62035); test: as above

- binding [1]: binds
Molecule: receptor for platelet-activating factor (PAFR) (from UniProt Q62035 1-341)

- binding [1]: binds
- binding [2]: binds
B1: flotillin-1 (protein, UniProt O08917 1-428)
chain: MFFTCGPNEAMVVSGFCRSPPVMVAGGRVFVLPCIQQIQRISLNTLTLNVKSEKVYTRHGVPISVTGIAQVKIQGQNKEMLAAACQMFLGKTEAEIAHIALETLEGHQRAIMAHMTVEEIYKDRQKFSEQVFKVASSDLVNMGISVVSYTLKDIHDDQDYLHSLGKARTAQVQKDARIGEAEAKRDAGIREAKAKQEKVSAQCLSEIEMAKAQRDYELKKATYDIEVNTRRAQADLAYQLQVAKTKQQIEEQRVQVQVVERAQQVAVQEQEIARREKELEARVRKPAEAERYRLERLAEAEKAQLIMQAEAEAESVRMRGEAEAFAIGARARAEAEQMAKKAEAFQMYQEAAQLDMLLEKLPQVAEEISGPLTSANKITLVSSGSGTMGAAKVTGEVLDILSRLPESVERLTGVSISQVNHNKPLRTA
